Data taken from PMC6746929.
Results are given in words; binding and its absence hold for the method and conditions named. In cells and extracts the contact can be indirect. Some binding calls cover weakened binding; strength is not graded here. Tags and fused reporters may be left off the sequences shown.

T1: Slitrk3 (Slit and Trk-like family member 3, ST3), wild type, Flag- or Myc-tagged (mouse) (UniProt Q810B9)
T1 sequence: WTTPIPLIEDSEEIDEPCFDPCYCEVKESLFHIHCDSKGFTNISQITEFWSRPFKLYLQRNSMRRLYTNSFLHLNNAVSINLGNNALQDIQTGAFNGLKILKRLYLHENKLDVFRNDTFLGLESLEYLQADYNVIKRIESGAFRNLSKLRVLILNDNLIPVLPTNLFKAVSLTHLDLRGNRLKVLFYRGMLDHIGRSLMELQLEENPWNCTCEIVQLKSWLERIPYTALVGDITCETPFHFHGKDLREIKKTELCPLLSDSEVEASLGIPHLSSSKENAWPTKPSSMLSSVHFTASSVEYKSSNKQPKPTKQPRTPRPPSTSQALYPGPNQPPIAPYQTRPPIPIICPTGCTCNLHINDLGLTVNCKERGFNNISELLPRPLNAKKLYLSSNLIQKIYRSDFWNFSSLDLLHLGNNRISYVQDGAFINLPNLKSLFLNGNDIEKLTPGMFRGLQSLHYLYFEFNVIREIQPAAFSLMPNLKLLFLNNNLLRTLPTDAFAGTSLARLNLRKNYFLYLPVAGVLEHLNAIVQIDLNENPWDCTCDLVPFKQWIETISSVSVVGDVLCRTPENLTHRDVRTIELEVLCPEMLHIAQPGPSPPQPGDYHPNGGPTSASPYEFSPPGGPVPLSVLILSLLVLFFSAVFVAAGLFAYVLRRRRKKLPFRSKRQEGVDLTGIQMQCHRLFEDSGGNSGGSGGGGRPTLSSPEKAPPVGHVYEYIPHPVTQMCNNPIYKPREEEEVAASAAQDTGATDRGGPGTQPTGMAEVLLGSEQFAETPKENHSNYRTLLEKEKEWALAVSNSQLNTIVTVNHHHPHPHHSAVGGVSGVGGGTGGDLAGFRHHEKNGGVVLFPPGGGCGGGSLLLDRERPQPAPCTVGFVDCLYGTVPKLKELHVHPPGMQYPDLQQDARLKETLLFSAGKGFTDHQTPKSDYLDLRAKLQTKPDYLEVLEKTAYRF

B1: Slitrk3 (Slit and Trk-like family member 3, ST3), wild type, Flag- or Myc-tagged (protein, UniProt Q810B9 28-980)
chain: T1 sequence
B2: Myc tagged ST3 C-terminal deletion mutant (Myc-ST3 ΔCT) (domain or fragment, UniProt Q810B9 28-680)
chain: WTTPIPLIEDSEEIDEPCFDPCYCEVKESLFHIHCDSKGFTNISQITEFWSRPFKLYLQRNSMRRLYTNSFLHLNNAVSINLGNNALQDIQTGAFNGLKILKRLYLHENKLDVFRNDTFLGLESLEYLQADYNVIKRIESGAFRNLSKLRVLILNDNLIPVLPTNLFKAVSLTHLDLRGNRLKVLFYRGMLDHIGRSLMELQLEENPWNCTCEIVQLKSWLERIPYTALVGDITCETPFHFHGKDLREIKKTELCPLLSDSEVEASLGIPHLSSSKENAWPTKPSSMLSSVHFTASSVEYKSSNKQPKPTKQPRTPRPPSTSQALYPGPNQPPIAPYQTRPPIPIICPTGCTCNLHINDLGLTVNCKERGFNNISELLPRPLNAKKLYLSSNLIQKIYRSDFWNFSSLDLLHLGNNRISYVQDGAFINLPNLKSLFLNGNDIEKLTPGMFRGLQSLHYLYFEFNVIREIQPAAFSLMPNLKLLFLNNNLLRTLPTDAFAGTSLARLNLRKNYFLYLPVAGVLEHLNAIVQIDLNENPWDCTCDLVPFKQWIETISSVSVVGDVLCRTPENLTHRDVRTIELEVLCPEMLHIAQPGPSPPQPGDYHPNGGPTSASPYEFSPPGGPVPLSVLILSLLVLFFSAVFVAAGLFAYVL

Target: T1, Slitrk3 (Slit and Trk-like family member 3, ST3), wild type, Flag- or Myc-tagged (mouse)
Experiment: co-IP; HEK293T cells co-transfected with Flag-ST3 and Myc-ST3 or Myc-ST3 ΔCT for 48 h; lysis buffer 25 mM Tris pH 7.4, 1% Triton X-100, 150 mM NaCl, 5% glycerol, 1 mM EDTA; lysates incubated with anti-Flag M2 affinity gel overnight at 4°C; blot with anti-Myc and anti-Flag

Row | Binder | binding
1 | B1 | binds
2 | B2 | binds
